Some of the results follow.
compound: CC1=C(C2=C(C=C1)C(=O)C3=CC=CC=C3N2CCCN)C; experiment: log2 fold change, soluble protein after heating vs DMSO (PISA); higher = thermal stabilisation; K562 lysate, 10 uM; active = over 0.2 and 3.5 SD of the protein, either way, in both replicates (recomputed)
Method in brief: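 Soluble protein was defined as the supernatant remaining after 21,000xg for 90 min, following pooling of heated aliquots and adjustment to 0.5% NP-40 at 4°C. Before that, crude K562 extract at 1 mg/mL protein in PBS pH 7.4 with 1 mM MgCl2 was treated with 10 μM compound for 30 min and heated for 3 min across 48°C-58°C. Quantification used TMTpro 16plex LC-MS/MS with channel sums equalised, and values are log-two fold changes in thermal stability relative to solvent controls from duplicates.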

Sequences of proteins named here, by UniProt entry; tags and fusion partners are left off. A change or cut given only in a name is not applied to a line headed by its entry.
UniProt P04424, whole entry, looked up: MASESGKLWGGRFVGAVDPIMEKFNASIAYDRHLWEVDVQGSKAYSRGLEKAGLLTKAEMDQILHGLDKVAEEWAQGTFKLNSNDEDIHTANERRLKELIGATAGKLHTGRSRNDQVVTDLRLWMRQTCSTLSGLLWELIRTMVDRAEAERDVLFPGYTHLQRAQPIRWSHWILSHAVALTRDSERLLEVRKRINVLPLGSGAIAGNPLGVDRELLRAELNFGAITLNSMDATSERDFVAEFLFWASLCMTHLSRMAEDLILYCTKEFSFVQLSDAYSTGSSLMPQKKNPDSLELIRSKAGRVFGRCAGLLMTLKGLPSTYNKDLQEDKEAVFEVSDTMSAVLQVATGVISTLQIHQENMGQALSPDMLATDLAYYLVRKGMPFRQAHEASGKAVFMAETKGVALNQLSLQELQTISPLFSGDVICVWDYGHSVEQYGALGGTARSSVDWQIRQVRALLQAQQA
UniProt O95260: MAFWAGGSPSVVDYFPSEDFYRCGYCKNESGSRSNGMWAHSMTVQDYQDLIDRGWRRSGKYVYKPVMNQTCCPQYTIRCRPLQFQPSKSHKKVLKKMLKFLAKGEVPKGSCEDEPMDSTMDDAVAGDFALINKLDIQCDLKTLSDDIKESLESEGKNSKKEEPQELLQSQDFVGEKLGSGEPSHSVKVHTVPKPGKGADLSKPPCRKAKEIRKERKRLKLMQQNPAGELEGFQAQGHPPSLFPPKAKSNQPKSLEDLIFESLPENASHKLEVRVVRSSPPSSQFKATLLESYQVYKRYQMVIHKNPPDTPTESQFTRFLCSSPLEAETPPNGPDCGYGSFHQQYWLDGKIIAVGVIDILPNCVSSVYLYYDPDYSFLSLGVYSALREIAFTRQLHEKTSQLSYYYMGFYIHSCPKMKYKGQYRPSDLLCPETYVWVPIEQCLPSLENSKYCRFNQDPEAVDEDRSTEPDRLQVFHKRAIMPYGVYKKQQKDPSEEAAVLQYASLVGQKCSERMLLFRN
UniProt Q9UBB4: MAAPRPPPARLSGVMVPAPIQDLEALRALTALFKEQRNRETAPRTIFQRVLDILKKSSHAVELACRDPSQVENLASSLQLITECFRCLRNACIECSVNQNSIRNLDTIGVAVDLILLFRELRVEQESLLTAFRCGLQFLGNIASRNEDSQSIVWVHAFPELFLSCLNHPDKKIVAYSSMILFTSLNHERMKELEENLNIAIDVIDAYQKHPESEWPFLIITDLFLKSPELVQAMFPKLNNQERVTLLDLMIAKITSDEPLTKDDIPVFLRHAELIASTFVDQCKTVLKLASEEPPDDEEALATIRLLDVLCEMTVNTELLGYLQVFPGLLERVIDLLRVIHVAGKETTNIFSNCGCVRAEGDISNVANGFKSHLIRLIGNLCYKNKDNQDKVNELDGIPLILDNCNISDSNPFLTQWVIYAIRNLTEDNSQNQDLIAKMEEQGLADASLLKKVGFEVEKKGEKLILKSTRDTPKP
UniProt P21281, whole entry, looked up: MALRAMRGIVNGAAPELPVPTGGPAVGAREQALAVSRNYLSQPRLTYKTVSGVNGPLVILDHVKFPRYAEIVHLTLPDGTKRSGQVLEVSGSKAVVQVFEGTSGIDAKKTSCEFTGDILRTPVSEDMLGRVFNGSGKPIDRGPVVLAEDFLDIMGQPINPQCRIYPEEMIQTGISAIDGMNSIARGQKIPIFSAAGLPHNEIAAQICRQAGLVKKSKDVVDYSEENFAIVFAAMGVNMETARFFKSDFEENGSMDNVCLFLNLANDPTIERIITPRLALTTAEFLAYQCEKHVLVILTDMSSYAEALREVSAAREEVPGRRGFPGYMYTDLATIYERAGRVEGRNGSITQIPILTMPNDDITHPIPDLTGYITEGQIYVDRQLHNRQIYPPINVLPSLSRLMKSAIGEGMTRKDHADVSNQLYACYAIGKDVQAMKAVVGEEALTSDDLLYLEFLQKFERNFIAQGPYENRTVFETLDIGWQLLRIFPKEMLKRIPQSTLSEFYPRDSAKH
UniProt Q2TAZ0: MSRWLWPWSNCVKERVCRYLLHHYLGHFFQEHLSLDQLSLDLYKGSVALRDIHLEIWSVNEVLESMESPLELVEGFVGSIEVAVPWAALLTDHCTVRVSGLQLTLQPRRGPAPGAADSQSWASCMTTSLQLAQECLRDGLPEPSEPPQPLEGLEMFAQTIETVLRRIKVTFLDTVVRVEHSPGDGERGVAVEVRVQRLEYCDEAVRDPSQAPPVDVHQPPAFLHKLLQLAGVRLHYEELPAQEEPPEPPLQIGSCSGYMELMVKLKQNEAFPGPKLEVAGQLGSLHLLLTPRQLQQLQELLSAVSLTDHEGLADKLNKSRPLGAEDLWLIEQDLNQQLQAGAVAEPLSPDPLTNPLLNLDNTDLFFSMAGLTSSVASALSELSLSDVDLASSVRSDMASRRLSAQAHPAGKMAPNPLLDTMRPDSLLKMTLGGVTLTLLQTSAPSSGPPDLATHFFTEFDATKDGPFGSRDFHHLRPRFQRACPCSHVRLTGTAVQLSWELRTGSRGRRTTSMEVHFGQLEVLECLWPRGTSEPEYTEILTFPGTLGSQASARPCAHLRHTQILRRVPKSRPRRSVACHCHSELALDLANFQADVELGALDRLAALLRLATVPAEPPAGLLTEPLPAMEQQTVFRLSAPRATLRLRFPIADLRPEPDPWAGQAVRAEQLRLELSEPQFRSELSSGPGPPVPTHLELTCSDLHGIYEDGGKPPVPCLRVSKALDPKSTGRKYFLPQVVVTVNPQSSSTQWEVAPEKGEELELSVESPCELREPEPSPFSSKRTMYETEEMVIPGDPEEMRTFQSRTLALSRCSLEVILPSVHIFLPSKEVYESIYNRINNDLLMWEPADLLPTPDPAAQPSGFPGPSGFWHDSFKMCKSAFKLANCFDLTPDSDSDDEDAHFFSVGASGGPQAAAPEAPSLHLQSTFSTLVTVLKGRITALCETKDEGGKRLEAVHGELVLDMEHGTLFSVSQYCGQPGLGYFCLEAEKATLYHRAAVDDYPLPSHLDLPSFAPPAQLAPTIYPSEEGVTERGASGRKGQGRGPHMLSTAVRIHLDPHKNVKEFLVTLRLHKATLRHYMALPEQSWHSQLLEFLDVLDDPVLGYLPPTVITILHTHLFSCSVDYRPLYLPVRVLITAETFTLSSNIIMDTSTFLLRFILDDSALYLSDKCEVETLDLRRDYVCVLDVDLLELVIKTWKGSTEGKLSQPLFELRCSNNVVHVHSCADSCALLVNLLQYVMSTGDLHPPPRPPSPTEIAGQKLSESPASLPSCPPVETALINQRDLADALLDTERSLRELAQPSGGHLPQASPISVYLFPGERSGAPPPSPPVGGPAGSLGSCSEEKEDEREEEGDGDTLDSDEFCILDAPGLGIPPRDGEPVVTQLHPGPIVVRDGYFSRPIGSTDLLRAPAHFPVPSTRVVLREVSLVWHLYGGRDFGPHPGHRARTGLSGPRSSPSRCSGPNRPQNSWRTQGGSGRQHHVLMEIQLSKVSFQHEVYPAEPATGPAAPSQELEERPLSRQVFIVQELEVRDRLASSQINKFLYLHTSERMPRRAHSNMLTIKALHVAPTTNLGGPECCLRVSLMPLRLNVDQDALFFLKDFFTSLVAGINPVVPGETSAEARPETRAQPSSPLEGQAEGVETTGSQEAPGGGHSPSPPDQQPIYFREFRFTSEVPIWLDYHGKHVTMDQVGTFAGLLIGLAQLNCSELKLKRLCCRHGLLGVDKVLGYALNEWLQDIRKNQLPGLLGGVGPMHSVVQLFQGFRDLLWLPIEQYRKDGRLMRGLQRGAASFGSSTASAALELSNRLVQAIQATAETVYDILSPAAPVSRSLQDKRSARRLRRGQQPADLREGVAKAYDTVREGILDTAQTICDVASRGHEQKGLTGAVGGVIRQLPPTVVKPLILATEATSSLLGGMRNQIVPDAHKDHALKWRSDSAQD
UniProt Q9NVP2, whole entry, looked up: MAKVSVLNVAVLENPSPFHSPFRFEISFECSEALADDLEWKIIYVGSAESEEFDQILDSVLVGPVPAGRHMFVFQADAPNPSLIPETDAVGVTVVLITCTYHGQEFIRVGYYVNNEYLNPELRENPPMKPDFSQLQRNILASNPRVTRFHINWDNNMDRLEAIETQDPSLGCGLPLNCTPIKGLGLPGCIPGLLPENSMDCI
UniProt Q96DT6: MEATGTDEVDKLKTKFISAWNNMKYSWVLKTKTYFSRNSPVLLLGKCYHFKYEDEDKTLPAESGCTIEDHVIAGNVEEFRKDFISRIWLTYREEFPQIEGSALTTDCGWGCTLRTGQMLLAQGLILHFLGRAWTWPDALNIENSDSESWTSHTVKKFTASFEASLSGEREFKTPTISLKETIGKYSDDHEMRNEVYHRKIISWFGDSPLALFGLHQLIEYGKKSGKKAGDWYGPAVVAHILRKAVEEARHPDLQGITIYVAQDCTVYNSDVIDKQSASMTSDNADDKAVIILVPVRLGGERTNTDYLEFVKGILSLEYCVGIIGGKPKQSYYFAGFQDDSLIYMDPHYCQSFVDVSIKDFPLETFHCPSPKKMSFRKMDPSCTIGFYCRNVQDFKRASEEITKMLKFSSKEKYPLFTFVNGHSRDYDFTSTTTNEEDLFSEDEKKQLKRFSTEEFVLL
UniProt Q13733, whole entry, looked up: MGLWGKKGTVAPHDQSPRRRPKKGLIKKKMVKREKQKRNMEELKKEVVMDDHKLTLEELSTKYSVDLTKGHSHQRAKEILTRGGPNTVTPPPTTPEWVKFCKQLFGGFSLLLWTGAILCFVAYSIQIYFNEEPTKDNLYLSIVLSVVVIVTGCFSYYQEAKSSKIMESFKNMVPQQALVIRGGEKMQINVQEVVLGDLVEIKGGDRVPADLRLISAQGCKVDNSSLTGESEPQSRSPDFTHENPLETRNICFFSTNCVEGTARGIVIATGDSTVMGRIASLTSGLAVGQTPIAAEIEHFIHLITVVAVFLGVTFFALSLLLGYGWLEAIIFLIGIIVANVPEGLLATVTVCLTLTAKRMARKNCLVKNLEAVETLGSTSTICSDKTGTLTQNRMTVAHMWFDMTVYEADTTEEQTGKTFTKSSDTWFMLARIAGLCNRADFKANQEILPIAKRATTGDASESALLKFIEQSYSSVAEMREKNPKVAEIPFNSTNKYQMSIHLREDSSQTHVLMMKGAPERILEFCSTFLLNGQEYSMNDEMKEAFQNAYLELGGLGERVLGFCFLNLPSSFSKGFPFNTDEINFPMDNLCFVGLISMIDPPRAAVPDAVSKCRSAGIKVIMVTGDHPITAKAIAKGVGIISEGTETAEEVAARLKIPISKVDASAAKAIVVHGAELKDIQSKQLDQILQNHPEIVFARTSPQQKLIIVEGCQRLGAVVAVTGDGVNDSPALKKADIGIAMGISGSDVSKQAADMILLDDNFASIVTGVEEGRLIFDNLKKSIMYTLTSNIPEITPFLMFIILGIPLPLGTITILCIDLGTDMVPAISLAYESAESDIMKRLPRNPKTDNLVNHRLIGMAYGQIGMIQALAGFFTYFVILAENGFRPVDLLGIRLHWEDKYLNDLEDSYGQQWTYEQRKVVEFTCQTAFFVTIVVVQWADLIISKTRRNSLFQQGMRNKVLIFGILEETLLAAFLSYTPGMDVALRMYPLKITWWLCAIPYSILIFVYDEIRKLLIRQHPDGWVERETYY
UniProt O43681: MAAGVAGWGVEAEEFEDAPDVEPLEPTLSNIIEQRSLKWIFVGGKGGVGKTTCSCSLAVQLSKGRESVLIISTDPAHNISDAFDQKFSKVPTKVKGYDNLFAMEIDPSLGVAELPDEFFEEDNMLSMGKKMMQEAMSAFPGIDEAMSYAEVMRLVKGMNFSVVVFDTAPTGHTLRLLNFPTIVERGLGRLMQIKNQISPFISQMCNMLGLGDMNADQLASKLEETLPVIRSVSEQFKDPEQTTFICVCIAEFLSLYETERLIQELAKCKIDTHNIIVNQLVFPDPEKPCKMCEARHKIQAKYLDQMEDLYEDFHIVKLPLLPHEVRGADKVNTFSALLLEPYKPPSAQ
UniProt P48047: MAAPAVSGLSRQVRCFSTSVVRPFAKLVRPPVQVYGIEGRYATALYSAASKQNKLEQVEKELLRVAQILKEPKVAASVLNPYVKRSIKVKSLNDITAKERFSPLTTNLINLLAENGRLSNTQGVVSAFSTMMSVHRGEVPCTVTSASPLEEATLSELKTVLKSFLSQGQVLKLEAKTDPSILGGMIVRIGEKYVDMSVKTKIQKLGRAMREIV

Row | Target | log2 fold change
1 | ASL (UniProt P04424) | inactive: -0.014
2 | ATE1 isoform 2 (UniProt O95260) | inactive: -0.001
3 | ATP1A3 isoform 3 (UniProt P13637) | inactive: -0.023
4 | ATXN10 (UniProt Q9UBB4) | inactive: 0.001
5 | ATP6V1B2 (UniProt P21281) | inactive: -0.024
6 | ATG2A isoform 3 (UniProt Q2TAZ0) | inactive: -0.035
7 | ASF1B (UniProt Q9NVP2) | inactive: -0.025
8 | ATG4C (UniProt Q96DT6) | inactive: -0.025
9 | ATP1A4 (UniProt Q13733) | inactive: -0.018
10 | ASNA1 (UniProt O43681) | inactive: 0.028
11 | ATP5PO (UniProt P48047) | inactive: -0.017

Quoted from above, nos. 5–6
Row | Target | log2 fold change
5 | ATP6V1B2 (UniProt P21281) | inactive: -0.024
6 | ATG2A isoform 3 (UniProt Q2TAZ0) | inactive: -0.035

From the supplement of paper PMC10849652
